Library screen at single concentrations

Chains of the proteins cited; added tags and fusions are not shown. Residues count along the entry.
UniProt P9WPC5, whole entry: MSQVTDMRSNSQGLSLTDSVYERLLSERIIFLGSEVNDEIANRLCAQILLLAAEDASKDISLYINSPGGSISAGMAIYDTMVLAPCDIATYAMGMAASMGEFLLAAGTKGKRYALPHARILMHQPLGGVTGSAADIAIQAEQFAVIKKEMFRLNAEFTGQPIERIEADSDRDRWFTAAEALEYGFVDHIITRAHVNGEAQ
UniProt P9WPC3, whole entry partner: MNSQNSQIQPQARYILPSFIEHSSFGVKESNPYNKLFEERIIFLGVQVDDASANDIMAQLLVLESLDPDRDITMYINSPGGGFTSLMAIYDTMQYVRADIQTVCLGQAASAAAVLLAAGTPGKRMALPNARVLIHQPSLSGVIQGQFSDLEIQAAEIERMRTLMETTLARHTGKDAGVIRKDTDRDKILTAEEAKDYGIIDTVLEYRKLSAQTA
UniProt P9WNZ1, whole entry: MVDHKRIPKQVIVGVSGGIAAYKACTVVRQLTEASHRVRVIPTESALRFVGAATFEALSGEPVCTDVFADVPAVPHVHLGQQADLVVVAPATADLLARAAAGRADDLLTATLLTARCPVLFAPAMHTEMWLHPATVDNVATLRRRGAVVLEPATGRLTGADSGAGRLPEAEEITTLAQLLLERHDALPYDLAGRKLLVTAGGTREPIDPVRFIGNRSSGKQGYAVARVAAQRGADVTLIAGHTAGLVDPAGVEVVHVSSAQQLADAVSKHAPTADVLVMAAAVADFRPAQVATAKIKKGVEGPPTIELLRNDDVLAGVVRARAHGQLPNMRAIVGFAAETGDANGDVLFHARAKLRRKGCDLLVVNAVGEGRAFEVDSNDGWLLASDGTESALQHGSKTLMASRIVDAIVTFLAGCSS
UniProt A4I591, 1-473: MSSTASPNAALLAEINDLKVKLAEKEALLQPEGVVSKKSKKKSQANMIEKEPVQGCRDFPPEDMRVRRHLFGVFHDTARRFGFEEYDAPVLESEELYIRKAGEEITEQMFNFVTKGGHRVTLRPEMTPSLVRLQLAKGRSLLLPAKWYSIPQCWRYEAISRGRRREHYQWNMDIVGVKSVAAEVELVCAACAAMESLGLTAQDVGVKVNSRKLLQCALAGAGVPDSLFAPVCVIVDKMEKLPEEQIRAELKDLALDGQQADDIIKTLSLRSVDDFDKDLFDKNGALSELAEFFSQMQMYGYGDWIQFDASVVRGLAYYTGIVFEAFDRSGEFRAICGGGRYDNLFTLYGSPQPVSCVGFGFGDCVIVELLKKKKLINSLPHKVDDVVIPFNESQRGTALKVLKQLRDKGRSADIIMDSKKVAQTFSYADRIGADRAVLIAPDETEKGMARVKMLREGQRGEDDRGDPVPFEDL

ClpP1P2: 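Protease assay of ClpP1P2, read by the AMC dye that it sets free. Target: ClpP1P2, Mycobacterium tuberculosis (UniProt P9WPC5 and UniProt P9WPC3). Concentration: 50 µM. Direction is inferred from only a few compounds that gave an IC50; most scored high, so higher reads as stronger inhibition. Most other retested compounds had strongly negative values. Of about 69,000 compounds tested this way, about 10 (0.015%) reached 50% or more in at least one test.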
CoaBC: 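Enzyme assay of CoaBC with a phosphate dye (Biomol Green) read at 650 nm. Target: Coenzyme A biosynthesis protein CoaBC, Mycobacterium tuberculosis (UniProt P9WNZ1). Tested at 30 µM. Direction is inferred from only a few compounds that gave an IC50; most scored high, so higher reads as stronger inhibition. Most strong results did not repeat in a second test. Of about 67,000 compounds tested this way, about 40 (0.06%) reached 50% or more in at least one test.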
Leishmania in macrophages: 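Cell assay of Leishmania donovani living inside macrophages; the read-out is not stated. Compounds at 30 µM. The record gives no direction; compounds that gave an IC50 in retests scored well above the rest, so higher reads as stronger inhibition. Of about 69,000 compounds tested this way, about 1,000 (1.5%) reached 50% or more in at least one test.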
LiHisRS: 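Enzyme assay of histidyl-tRNA synthetase; the read-out is not stated. Target: Histidine-tRNA ligase, Leishmania infantum (UniProt A4I591). Tested at 30 µM. Direction is inferred from retests: higher values go with stronger inhibition. The assay is labelled LdHisRS but filed under L. infantum. Size under these conditions: about 69,000 compounds, about 410 of them at 50% or above in at least one test.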

Results are given as percent effect.
The record does not define 0% and 100%; most values in the screen are far below 50% and negative numbers occur (in some assays of this library far below -100).
This is an unselected part of the compounds tested.
Two or more numbers in one place are separate tests of the same structure; such repeats can differ widely.
A dash means the value is not listed here; it may have been measured.

compound	ClpP1P2	CoaBC	Leishmania in macrophages	LiHisRS
Cc1cc(NC(=O)c2ccccc2Br)n(C)n1	4.977	9.375	-1.29	6.25
O=C(O)C(F)(F)F.O=C(O)C(F)(F)F.[H][C@@]12CC(COCc3cccnc3)C[C@@]1([H])N(c1ncc(C)cn1)CCO2 (some centres undefined)	-	-	12.05	-
COC1CCN(C(=O)CCn2ccc(=O)[nH]c2=O)CC1	9.438	-3.171	0.2273 & -2.137	-5.217
COc1ccc(Cl)cc1CN(CC(N)=O)C(C)C	5.257	0.8917	9.886	6.218
Cc1ccc2nc(C(=O)N3C[C@@H](C(=O)O)[C@H](c4cccnc4)C3)cn2c1	-7.595	7.438	8.715	20.41
CCC(C)(NCC(=O)NC(=O)NC)c1nccs1 (centres undefined)	-5.353	4.121	7.838	3.125
O=C(O)C(F)(F)F.O=C(O)C(F)(F)F.O=C(c1cccnc1)N1CC[C@H](OCC2CC2)[C@@H]1Cc1cccnc1	-	-	-5.961	-
O=C(C1CC1)N1CC[C@H]2C(=O)N(c3ccsc3)CCO[C@H]2C1	2.28	11.27	-	8
Cc1noc(C2CCN(Cn3cc(Cl)cn3)CC2)n1	-1.812	4.403	6.696	21.24
O=C(NCCNc1ccc(C(F)(F)F)cn1)c1ccc(Cl)cc1F	-46.69	1.044	-2.21	7.965
CC1CCN(c2ccnc3ccc(Br)cc23)CC1	9.671	16.27	-11.78	18.75
O=C(Nc1cc(CSCCO)ccn1)c1cc2ccccc2[nH]1	-10.43	0.2439	-2.661	4.8
CCOC(=O)c1c(NC(=O)C2CCN(C(C)=O)CC2)sc(C)c1CC	-17.98	0.361	-52.32	2.247
CCc1nc(CN2CCCC(Cn3nc(C)nc3C)C2)no1 (centres undefined)	3.004	-1.118	23.27	17.54
CC(C)(C)NC(=O)NC(=O)COc1nc(C(C)(C)C)no1	-11.85	-5.769	5.526	-4.11
Cc1cnn(CC2CCCCN2C(=O)c2cccnc2N(C)C)c1 (centres undefined)	-14.81	4.596	-20.2	10.53
O=C(O)C(F)(F)F.O=C(O)C(F)(F)F.[H][C@@]12COC[C@@H](C(=O)NCc3ccccn3)[C@]1([H])CN(c1ncccn1)C2	-	-	0.9136	-
CC(=O)N1CCOC(c2cc(N3CC(O)C3)nc(C)n2)C1 (centres undefined)	3.046	-2.85	8.869	10.95
Cc1ccc(C(=O)N2CCN3C[C@H](Oc4cccnc4)C[C@H]3C2)cn1	3.998	10.4	-	9.735
Cc1ccccc1CCCN1C(=O)CC2(CCSC2)C1=O (centres undefined)	-7.456	-1.945	-5.751	-3.175
Cc1ccc(N2CCCC(NCc3nc(C)c(C)o3)C2)nn1 (centres undefined)	9.572	4.7	37.05	32.43
CN1CCN([C@@H]2CCN(Cc3cccc(-n4cccn4)c3)C[C@H]2O)CC1	-9.018	-2.211	20.85	0
CC(CC(=O)N1CCCN(Cc2nccn2C)CC1)n1cccc1 (centres undefined)	-46.98	1.816	-10.86	3.261
O=C(c1cccnc1N1CCOCC1)N1CCCC(n2cncn2)C1 (centres undefined)	-14.01	2.046	-1.376	12.84
CN(C)CC(=O)N1CCC2(CCc3cc(-c4cccnc4)ccc32)CC1	2.38	-28.07	-	34
CN(CCN(C)S(=O)(=O)CC1CCOCC1)c1ccccc1	-11.65	7.171	4.21	10.96
[H][C@@]12COC[C@]1([H])[C@@H](OCCN(C)C)CN2C(=O)c1ccc2c(c1)OCO2	-	-	14.07	-
CCOC(=O)NC(CNC(=O)CCc1ccccn1)CC(C)C (centres undefined)	-2.041	0	14.94	15.09
O=C(CC1CC1)N1CCn2cc(Cn3cccn3)nc2C1.O=C(O)C(F)(F)F	-	-	13.27	-
COCCN(CCOC)C(=O)c1cc(F)cc2[nH]cnc12	-5.217	3.639	6.375	13.56
Cc1ccc(-c2cc(CN(CC(N)=O)CC(C)C)on2)cc1	5.893	6.994	57.13	21.57
O=C1CC(c2ccccc2)C2(CCN(Cc3nccs3)CC2)N1 (centres undefined)	3.968	19.29	-	26.61
CCOc1ncccc1CNC(=O)c1cc(C)on1	-21.42	-0.5821	7.085	11.4
COc1ccc(N(c2ccc(OC)cc2)c2ccc(C(=O)O)s2)cc1	-0.2915	1.595	8.131	16.49
CCCc1ccc(CN2CCN(c3ncccn3)[C@@H]3CS(=O)(=O)C[C@@H]32)o1	-3.7	-3.672	-	13.22
Cc1ccc(C(=O)NCCn2nc(-n3cncn3)ccc2=O)c(C)c1	-3.642	1.695	-14.68	15.22
O=C(O)C(F)(F)F.[H][C@@]12CCN(Cc3cccc(C)c3)C[C@]1(C(=O)NC)CCO2	-	-	9.585	-
O=C(NCc1nc(NC2CCCC2)c2cc(Cl)ccc2n1)c1cncs1	-5.529	1.44	17.47	7.527
CC(O)(CNC(=O)c1cccnc1-n1cccn1)c1cccs1 (centres undefined)	-12.19	1.942	-10.91	0
Cc1ccc(CN2CCOC3(COCCN(CCN(C)C)C3)C2)o1.O=C(O)C(F)(F)F.O=C(O)C(F)(F)F.O=C(O)C(F)(F)F (centres undefined)	-	-	25.46	-
CC(NC(=O)c1cc(C(C)C)[nH]n1)C(=O)Nc1ccccc1 (centres undefined)	0.5837	0.2066	-44.78	16.44
CCc1n[nH]c(C2CN(CC(=O)NCCc3ccsc3)CCO2)n1 (centres undefined)	-9.633	9.168	8.484	7.692
OC(COCc1ccccc1F)CN1CCc2c(ncn2C2CC2)C1 (centres undefined)	-6.406	-0.3911	11.72	-6.757
Cl.c1ccc(-c2cc(CNCCCC3CCOC3)c3nnnn3c2)cc1 (centres undefined)	-	-	8.253 & 12.93	-
CCCc1noc(C(C)N2CCN(CCn3ccccc3=O)CC2)n1 (centres undefined)	-3.393	20.87 & 14.81	52.92	6.806
Cc1ccccc1CCCN1CCS(=O)(=O)CC1C (centres undefined)	-16.13	-2.992	12.46	6.25
CCOC(=O)N1CCCC2(CCCNC2)C1 (centres undefined)	-9.981	2.29	-	13.59
CN1CCO[C@@H]2CN(C(=O)Cc3cccs3)CC[C@@H]2C1	-4.276	-0.4938	-	2.727
COc1ncccc1C(=O)N1CCCC(n2ccnc2C)C1 (centres undefined)	-2.823	-1.186	-2.011	0
CC(Cn1cccn1)NC(=O)Nc1nnc(C2CC2)s1 (centres undefined)	8.011	1.928	-7.132	10.96
[H][C@@]12CCN(Cc3ccc(F)cc3)C[C@]1([H])OCCN(c1cccnc1)C2=O	-	-	10.65	-
CCC[C@@H]1CN(Cc2c[nH]c(CC3CCCC3)n2)C[C@H]1C(=O)O	-9.817	-	4.492	-1.408
CNC(=O)COc1c(C(C)=O)ccc(Cl)c1Cl	-1.414	-4.912	7.021	16.67
CC1CCc2nc(O)c(C(=O)NCCN(C)C)cc2C1 (centres undefined)	4.679	7.402	-1.745	5.825
O=C(Nc1cnc(N2CCOCC2)nc1)c1ccc(C(F)(F)F)cc1	-18.7	4.391	18.92	13.56
CCc1cc(C(=O)N2Cc3ccccc3OC3(CCOCC3)C2)on1	-11.8	0.2433	-3.787 & 1.179	-7.368
CN(Cc1nnc(C2CC2)n1C)C1CCN(Cc2ccon2)C1 (centres undefined)	16.69	-0.5931	-8.446	23.81

The last 6 entries again:

For CCC[C@@H]1CN(Cc2c[nH]c(CC3CCCC3)n2)C[C@H]1C(=O)O the result was ClpP1P2: -9.817%; Leishmania in macrophages: 4.492%; LiHisRS: -1.408%.
For CNC(=O)COc1c(C(C)=O)ccc(Cl)c1Cl the result was ClpP1P2: -1.414%; CoaBC: -4.912%; Leishmania in macrophages: 7.021%; LiHisRS: 16.67%.
For CC1CCc2nc(O)c(C(=O)NCCN(C)C)cc2C1 (centres undefined) the result was ClpP1P2: 4.679%; CoaBC: 7.402%; Leishmania in macrophages: -1.745%; LiHisRS: 5.825%.
For O=C(Nc1cnc(N2CCOCC2)nc1)c1ccc(C(F)(F)F)cc1 the result was ClpP1P2: -18.7%; CoaBC: 4.391%; Leishmania in macrophages: 18.92%; LiHisRS: 13.56%.
For CCc1cc(C(=O)N2Cc3ccccc3OC3(CCOCC3)C2)on1 the result was ClpP1P2: -11.8%; CoaBC: 0.2433%; Leishmania in macrophages: -3.787% & 1.179%; LiHisRS: -7.368%.
For CN(Cc1nnc(C2CC2)n1C)C1CCN(Cc2ccon2)C1 (centres undefined) the result was ClpP1P2: 16.69%; CoaBC: -0.5931%; Leishmania in macrophages: -8.446%; LiHisRS: 23.81%.

The values are deposited in ChEMBL (CHEMBL3988442, “University of Dundee, Small-Polar-MMV Screening Library” (2021)).